# Experimental data reported in patent US7998958B2, “Substituted N-arylsulfonylheterocyclic amines as gamma-secretase inhibitors” (Schering Corporation, priority 2004, dated 2011).
# Some of these results come from one statement about several compounds together.
# System: gamma-secretase
# Assay: Gamma-secretase activity in membranes of 293 cells expressing C99 (SPC99-Ion), Aβ 40 / Aβ 42 by ECL immunoassay
# Format: biochemical
# Settings: gamma-secretase membrane assay; bound printed as 'higher than about 1 μM'
# Procedure: Gamma-secretase activity was determined as described by Zhang et al. (Biochemistry, 40 (16), 5049-5055, 2001), which is herein incorporated by reference. Activity is expressed either as a percent inhibition or as the concentration of compound producing 50% inhibition of enzyme activity.
# Reagents. Antibodies W02, G2-10, and G2-11 were obtained from Dr. Konrad Beyreuther (University of Heidelberg, Heidelberg, Germany). W02 recognizes residues 5-8 of Aβ peptide, while G2-10 and G2-11 recognize the specific C-terminal structure of Aβ 40 and Aβ42, respectively. Biotin-4G8 was purchased from Senetec (St. Louis, Mo.). All tissue culture reagents used in this work were from Life Technologies, Inc., unless otherwise specified. Pepstatin A was purchased from Roche Molecular Biochemicals; DFK167 was from Enzyme Systems Products (Livermore, Calif.).
# cDNA Constructs, Tissue Culture, and Cell Line Construction. The construct SPC99-Ion, which contains the first 18 residues and the C-terminal 99 amino acids of APP carrying the London mutation, has been described (Zhang, L., Song, L., and Parker, E. (1999) J. Biol. Chem. 274, 8966-8972). Upon insertion into the membrane, the 17 amino acid signal peptide is processed, leaving an additional leucine at the N-terminus of Aβ. SPC99-Ion was cloned into the pcDNA4/TO vector (Invitrogen) and transfected into 293 cells stably transfected with pcDNA6/TR, which is provided in the T-REx system (Invitrogen). The transfected cells were selected in Dulbecco's modified Eagle's media (DMEM) supplemented with 10% fetal bovine serum, 100 units/mL penicillin, 100 µg/mL streptomycin, 250 µg/mL zeocin, and 5 µg/mL blasticidin (Invitrogen). Colonies were screened for Aβ production by inducing C99 expression with […] tetracycline for 16-20 h and analyzing conditioned media with a sandwich immunoassay (see below). One of the clones, designated as pTRE.15, was used in these studies.
# Membrane Preparation. C99 expression in cells was induced with […] tetracycline for 20 h. The cells were pretreated with […] 12-myristate 13-acetate (PMA) and […] brefeldin A (BFA) for 5-6 h at 37° C. before harvesting. […]
# To make membranes, the cells were resuspended in buffer A and lysed in a nitrogen bomb at 600 psi. […] The protein concentration was determined, and membrane aliquots were flash-frozen in liquid nitrogen and stored at −70° C.
# γ-Secretase Reaction and AβAnalysis. […] At the end of the incubation, Aβ 40 and Aβ 42 were measured using an electrochemiluminescence (ECL)-based immunoassay. […] The ECL signal was measured using an ECL-M8 instrument (IGEN International, Inc.) according to the manufacturer's instructions. […]
row,SMILES,IC50 [µM]
1,CC[C@@H]1C[S+]([O-])C[C@H](C2(OC(=O)N3CCC[C@H]3CO)CC2)N1S(=O)(=O)c1ccc(Cl)cc1 (stereo partly shown) [Example 91],> 1
2,O=C(OC[C@@H]1COC[C@@H](c2cc(F)cc(F)c2)N1S(=O)(=O)c1ccc(Cl)cc1)N1CCN(CCO)CC1 [Example 4],> 1
3,O=C(OC[C@H]1COC[C@@H](C2CC2)N1S(=O)(=O)c1ccc(C(F)(F)F)cn1)N1CC2CCC(C1)N2CCO [Example 34],> 1
4,"CC[C@@H]1C[S+]([O-])C[C@H](C2(OC(=O)N3CC[C@H](O)C3)CC2)N1S(=O)(=O)c1ccc(Cl)cc1 (stereo partly shown) [Example 90, 3-Hydroxy-pyrrolidine-1-carboxylic acid 1-[4-(4-chloro-benzenesulfonyl)-5-ethyl-1-oxo-1l4-thiomorpholin-3-yl]-cyclopropyl ester]",> 1
